Test results as given in patent US20050152901A1.
Results are given in words; binding and its absence hold for the method and conditions named. Some entries that bind do so weakly or less than the wild type.

Amino acid sequences for entries named in this document (tags omitted). Residues count along the entry.
UniProt P17181, residues 28-436: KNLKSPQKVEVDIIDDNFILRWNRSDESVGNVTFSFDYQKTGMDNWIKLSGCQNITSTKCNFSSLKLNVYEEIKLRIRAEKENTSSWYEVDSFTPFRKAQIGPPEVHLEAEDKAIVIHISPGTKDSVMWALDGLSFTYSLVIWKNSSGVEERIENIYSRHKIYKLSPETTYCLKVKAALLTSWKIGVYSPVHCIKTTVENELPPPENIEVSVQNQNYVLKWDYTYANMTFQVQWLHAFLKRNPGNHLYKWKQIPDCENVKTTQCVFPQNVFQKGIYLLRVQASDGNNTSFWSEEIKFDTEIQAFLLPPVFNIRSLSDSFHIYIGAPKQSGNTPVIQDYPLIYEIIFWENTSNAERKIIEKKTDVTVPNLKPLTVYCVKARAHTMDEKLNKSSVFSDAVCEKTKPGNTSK

Target: IFNAR1 (IFNAR1 chain of the type 1 interferon receptor) (UniProt P17181)
Assay: method not described

B1: CPI-1697, humanized anti-IFNAR-1 antibody (heavy chain H3, light chain K1) (antibody, human IgG4, V domains shown)
VH: EVQLVESGGGLVQPGGSLRLSCAFSGFTLSTSGMGIGWVRQAPGKGLEWVAHWWDDDKYYNPSLKSRFTISRDTSKNTVYLQMNSLRAEDTAVYYCARNYYPYDAWFDYWGQGTLVTVS
VL: DIQMTQSPSSLSASVGDRVTITCSASSSINSNHLHWYQQKPGKAPKLLIYRTSILASGVPSRFSGSGSGTSFTLTISSLQPEDFATYYCQQGSNIPFTFGQGTKVEIKR
Question: Which binding does the source give for B1 here?
Answer: The binding was “binds”.
